Source: the supplement of paper PMC6411743
± gives the standard deviation of the averaged measurements. Only a part is listed here, and it is no random draw.

Chains of the proteins cited; added tags and fusions are not shown. Lines headed by an entry give the natural chain unless they say otherwise; changes in a name come on top.
UniProt Q9ULR3: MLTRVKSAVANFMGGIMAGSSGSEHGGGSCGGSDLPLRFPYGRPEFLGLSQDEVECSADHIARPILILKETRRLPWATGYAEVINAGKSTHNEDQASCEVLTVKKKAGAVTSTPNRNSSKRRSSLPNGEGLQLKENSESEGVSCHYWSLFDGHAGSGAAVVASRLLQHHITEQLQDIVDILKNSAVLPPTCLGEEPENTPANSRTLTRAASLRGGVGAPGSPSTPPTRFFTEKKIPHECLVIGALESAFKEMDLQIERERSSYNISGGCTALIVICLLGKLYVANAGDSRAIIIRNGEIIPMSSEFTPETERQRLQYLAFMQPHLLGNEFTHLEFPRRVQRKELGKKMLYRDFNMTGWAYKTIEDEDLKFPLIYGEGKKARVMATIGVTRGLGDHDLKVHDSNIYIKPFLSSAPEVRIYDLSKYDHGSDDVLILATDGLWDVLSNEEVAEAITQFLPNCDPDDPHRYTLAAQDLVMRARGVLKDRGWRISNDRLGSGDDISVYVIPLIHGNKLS
UniProt Q9UDW1: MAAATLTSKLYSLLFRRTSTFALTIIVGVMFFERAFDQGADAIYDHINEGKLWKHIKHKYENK
UniProt Q9P258, whole entry: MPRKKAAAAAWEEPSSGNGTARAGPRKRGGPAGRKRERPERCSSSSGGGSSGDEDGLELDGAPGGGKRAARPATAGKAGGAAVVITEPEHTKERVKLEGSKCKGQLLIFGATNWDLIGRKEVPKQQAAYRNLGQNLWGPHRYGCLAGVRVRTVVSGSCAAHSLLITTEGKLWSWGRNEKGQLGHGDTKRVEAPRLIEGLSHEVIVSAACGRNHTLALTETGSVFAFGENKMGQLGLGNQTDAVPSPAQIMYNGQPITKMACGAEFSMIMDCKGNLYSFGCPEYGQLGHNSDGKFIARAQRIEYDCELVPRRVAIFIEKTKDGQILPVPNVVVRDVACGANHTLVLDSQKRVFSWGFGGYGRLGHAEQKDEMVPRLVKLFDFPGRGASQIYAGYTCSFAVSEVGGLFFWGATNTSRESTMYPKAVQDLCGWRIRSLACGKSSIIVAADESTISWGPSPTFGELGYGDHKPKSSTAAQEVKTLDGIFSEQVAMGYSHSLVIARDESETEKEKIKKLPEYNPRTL
UniProt Q9UQ13: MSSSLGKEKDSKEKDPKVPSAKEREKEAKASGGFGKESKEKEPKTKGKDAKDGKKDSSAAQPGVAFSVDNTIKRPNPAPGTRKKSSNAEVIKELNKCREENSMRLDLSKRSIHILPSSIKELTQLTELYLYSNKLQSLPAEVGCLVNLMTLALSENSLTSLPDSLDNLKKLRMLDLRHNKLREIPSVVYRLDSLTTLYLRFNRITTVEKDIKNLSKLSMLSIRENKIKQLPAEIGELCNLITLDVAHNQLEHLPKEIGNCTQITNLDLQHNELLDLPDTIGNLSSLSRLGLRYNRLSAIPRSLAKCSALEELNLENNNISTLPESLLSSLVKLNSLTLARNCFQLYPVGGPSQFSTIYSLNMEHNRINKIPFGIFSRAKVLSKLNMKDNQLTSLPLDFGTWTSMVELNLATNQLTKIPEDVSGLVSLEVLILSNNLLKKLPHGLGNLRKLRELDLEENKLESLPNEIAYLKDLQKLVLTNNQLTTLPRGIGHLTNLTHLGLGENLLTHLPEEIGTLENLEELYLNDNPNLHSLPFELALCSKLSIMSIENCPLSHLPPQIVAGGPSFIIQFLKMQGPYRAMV
UniProt Q9Y281, whole entry: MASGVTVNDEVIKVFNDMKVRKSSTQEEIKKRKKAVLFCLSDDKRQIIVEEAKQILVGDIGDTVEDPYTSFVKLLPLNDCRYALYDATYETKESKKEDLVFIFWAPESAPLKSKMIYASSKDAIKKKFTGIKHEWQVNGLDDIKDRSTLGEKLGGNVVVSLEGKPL
UniProt Q9UHV9, whole entry: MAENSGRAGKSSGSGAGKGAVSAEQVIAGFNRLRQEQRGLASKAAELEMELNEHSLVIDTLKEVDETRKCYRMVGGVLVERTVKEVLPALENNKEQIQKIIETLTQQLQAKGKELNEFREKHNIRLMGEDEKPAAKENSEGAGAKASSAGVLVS
UniProt Q9UI12, whole entry: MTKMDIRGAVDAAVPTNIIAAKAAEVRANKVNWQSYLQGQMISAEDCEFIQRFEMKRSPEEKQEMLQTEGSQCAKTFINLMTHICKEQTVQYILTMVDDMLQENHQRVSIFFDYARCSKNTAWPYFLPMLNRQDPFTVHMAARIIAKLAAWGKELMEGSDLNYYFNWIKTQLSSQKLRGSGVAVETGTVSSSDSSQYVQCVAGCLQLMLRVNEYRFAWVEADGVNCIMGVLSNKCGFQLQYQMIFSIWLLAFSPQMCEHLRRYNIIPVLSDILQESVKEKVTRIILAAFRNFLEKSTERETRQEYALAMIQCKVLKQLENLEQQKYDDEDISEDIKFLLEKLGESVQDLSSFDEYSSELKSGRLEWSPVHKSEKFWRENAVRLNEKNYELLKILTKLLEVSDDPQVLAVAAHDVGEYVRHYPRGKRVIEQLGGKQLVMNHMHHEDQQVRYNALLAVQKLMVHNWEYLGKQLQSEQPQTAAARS
UniProt Q9Y221: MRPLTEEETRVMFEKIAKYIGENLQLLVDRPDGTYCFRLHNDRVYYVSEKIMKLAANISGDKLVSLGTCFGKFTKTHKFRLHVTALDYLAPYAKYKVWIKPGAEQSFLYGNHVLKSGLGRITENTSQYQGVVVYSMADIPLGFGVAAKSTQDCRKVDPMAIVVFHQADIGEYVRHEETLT
UniProt Q9UBU6: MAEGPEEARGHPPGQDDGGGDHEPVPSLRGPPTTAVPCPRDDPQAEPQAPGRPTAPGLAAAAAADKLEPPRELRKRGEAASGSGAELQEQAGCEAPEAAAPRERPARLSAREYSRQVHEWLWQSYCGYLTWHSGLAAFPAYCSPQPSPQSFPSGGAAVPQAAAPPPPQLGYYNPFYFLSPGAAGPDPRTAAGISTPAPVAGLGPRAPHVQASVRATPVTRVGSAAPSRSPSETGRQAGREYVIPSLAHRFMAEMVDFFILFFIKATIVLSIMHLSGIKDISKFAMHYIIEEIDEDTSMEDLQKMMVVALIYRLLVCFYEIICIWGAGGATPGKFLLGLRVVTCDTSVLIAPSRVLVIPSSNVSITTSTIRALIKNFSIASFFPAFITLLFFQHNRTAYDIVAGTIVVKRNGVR
UniProt Q9P2C4: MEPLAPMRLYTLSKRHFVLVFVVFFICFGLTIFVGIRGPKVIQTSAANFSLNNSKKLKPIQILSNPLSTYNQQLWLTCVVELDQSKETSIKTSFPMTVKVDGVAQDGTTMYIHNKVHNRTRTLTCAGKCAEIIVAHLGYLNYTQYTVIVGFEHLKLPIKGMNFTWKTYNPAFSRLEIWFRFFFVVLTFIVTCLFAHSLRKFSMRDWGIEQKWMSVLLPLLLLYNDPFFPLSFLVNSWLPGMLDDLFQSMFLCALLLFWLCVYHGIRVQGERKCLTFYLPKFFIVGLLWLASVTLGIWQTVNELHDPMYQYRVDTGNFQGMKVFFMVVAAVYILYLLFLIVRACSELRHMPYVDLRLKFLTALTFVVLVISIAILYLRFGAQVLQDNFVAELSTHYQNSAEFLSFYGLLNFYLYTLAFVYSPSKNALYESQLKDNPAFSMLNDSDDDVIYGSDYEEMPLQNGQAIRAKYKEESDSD
UniProt Q9P260: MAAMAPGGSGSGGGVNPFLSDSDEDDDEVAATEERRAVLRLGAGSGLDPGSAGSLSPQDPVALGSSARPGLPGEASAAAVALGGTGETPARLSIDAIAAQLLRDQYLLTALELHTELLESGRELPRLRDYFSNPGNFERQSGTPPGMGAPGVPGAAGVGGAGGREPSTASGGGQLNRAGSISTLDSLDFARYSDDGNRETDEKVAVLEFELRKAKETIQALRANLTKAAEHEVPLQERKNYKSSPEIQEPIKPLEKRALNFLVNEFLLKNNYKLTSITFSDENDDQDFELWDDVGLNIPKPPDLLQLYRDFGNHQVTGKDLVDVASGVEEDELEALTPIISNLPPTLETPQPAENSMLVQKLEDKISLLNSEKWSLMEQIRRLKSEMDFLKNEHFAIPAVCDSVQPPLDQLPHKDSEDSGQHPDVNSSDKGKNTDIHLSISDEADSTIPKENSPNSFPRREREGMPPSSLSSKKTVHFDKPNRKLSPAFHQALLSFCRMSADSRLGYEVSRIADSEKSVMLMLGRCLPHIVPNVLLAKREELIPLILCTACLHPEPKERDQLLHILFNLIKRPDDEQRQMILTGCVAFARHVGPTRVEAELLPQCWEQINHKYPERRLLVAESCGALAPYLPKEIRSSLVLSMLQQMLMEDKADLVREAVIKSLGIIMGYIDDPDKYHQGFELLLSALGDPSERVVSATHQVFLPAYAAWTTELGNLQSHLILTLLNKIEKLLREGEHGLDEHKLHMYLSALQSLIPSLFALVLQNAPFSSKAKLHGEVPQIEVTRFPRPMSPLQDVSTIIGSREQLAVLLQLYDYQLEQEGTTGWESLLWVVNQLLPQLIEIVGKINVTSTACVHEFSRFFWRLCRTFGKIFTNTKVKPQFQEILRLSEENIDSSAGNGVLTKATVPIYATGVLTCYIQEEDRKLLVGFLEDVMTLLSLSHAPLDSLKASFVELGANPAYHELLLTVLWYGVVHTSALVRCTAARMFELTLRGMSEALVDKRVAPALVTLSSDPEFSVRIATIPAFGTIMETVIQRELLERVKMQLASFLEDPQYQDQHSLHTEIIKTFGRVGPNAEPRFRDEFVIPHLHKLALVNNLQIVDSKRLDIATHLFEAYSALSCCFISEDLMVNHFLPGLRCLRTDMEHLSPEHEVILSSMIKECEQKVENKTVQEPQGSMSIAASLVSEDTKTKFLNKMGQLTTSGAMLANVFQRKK
UniProt Q9UIA9: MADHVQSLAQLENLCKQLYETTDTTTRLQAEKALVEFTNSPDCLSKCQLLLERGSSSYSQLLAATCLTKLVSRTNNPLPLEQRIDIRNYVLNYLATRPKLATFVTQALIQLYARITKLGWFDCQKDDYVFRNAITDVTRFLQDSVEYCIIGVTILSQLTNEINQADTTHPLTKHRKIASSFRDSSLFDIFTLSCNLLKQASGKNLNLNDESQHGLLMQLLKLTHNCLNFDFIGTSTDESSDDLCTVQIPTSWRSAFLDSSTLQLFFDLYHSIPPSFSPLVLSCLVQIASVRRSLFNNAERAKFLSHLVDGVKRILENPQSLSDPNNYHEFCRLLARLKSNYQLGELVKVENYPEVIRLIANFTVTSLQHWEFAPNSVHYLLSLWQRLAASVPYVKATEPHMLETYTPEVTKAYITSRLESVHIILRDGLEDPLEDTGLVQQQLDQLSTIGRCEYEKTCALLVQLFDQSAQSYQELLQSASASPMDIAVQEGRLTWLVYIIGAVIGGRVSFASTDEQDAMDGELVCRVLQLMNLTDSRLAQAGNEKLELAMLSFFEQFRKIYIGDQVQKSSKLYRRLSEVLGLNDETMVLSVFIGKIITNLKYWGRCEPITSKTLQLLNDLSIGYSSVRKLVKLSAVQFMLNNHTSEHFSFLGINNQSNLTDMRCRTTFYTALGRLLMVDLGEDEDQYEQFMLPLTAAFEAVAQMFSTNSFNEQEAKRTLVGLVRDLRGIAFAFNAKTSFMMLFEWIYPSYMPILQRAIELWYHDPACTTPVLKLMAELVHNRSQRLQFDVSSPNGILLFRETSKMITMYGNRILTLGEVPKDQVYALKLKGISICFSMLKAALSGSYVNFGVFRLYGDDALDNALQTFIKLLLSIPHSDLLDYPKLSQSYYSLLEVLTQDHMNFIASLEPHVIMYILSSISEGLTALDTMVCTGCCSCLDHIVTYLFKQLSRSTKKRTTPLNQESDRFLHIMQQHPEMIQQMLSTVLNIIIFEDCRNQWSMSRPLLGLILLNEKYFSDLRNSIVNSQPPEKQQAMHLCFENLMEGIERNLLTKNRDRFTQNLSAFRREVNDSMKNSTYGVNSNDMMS
UniProt Q9UJX3, whole entry: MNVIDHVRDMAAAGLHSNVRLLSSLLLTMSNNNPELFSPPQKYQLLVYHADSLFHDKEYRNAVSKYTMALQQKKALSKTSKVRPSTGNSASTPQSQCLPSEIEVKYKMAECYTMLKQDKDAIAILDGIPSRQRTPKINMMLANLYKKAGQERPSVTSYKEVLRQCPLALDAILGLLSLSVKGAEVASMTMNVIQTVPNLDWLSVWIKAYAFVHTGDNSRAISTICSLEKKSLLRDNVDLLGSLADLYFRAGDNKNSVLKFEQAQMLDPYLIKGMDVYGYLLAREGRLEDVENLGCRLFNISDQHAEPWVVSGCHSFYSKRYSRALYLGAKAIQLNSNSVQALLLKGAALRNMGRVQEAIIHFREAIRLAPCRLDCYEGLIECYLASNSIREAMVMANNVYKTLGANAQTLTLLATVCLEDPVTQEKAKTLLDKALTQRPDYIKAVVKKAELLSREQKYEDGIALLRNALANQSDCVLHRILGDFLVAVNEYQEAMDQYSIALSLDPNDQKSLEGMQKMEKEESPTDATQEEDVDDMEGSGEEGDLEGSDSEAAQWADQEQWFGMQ
UniProt Q9Y244: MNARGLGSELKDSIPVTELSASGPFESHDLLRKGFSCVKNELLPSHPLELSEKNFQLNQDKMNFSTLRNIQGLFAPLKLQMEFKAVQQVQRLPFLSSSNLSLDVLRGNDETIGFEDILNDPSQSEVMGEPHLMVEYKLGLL

These targets were tested with Nc1ncnc2c1ncn2[C@@H]1O[C@H](COP(=O)(O)OP(=O)(O)OP(=O)(O)O)[C@@H](O)[C@H]1O [adenosine triphosphate] (assay: NP40-soluble protein abundance relative to vehicle (solubility fold change) (ratio); higher = more soluble protein in presence of ATP). Conditions: concentration: 6mM.
Procedure, shortened: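 Crude Jurkat lysate, prepared by Dounce homogenisation, was exposed to eight concentrations from 0.1 to 10 mM for 10 min at room temperature and then 3 min at 37 °C. Solubilisation used 0.8% NP40 with benzonase for 60 min at 4 °C, followed by ultracentrifugation and TMT labelling of the supernatant for LC-MS/MS. After vsn normalisation of intensities, each value is the fold change against the detergent-processed vehicle within each replicate, across three independent experiments.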

Target	NP40-soluble protein abundance
UniProt Q9UH03 and related entries	1.02 ± 0.037
UniProt Q9UEE5	1.21 ± 0.11
PPM1H (UniProt Q9ULR3)	0.943 ± 0.037
COPG2 (UniProt Q9UBF2)	0.939 ± 0.041
TPX2 (UniProt Q9ULW0)	1.37 ± 0.035
UniProt Q9UDW1	0.699 ± 0.093
UniProt Q9Y232-2|Q9Y232	0.945 ± 0.12
UniProt Q9UPY8 and related entries	0.961 ± 0.017
UniProt Q9UDT6-2	1.21 ± 0.14
SPG7 (UniProt Q9UQ90)	1.07 ± 0.08
RAB21 (UniProt Q9UL25)	0.889 ± 0.042
RCC2 (UniProt Q9P258)	1.02 ± 0.072
UniProt Q9UQ13 and related entries	1.04 ± 0.074
CFL2 (UniProt Q9Y281)	0.769 ± 0.13
PFDN2 (UniProt Q9UHV9)	0.97 ± 0.12
SMC3 (UniProt Q9UQE7)	1.01 ± 0.036
VPS51 (UniProt Q9UID3)	0.888 ± 0.075
PA2G4 (UniProt Q9UQ80)	0.957 ± 0.046
STOML2 (UniProt Q9UJZ1)	0.981 ± 0.14

Target	NP40-soluble protein abundance
UniProt Q9UGN5-2	1.31 ± 0.038
UniProt Q9UI26 and related entries	0.993 ± 0.1
SMG5 (UniProt Q9UPR3)	1.01 ± 0.042
UniProt Q9UK61 and related entries	1.16 ± 0.047
NAGK (UniProt Q9UJ70)	0.936 ± 0.067
ZNF219 (UniProt Q9P2Y4)	1.14 ± 0.18
GNPTG (UniProt Q9UJJ9)	0.94 ± 0.15
UniProt Q9UI12 and related entries	0.967 ± 0.034
CCNL1 (UniProt Q9UK58)	0.842 ± 0.076
UniProt Q9Y221 and related entries	1.29 ± 0.079
FAM8A1 (UniProt Q9UBU6)	1.01 ± 0.057
TMEM181 (UniProt Q9P2C4)	1.02 ± 0.1
COPS7A (UniProt Q9UBW8)	1 ± 0.087
UniProt Q9P260 and related entries	1.01 ± 0.016
XPO7 (UniProt Q9UIA9)	0.904 ± 0.11
MAN1B1 (UniProt Q9UKM7)	1.06 ± 0.073
ANAPC7 (UniProt Q9UJX3)	1.01 ± 0.042
UniProt Q9UBB6-2|Q9UBB6 and related entries	0.871 ± 0.029
POMP (UniProt Q9Y244)	0.906 ± 0.13

Same assay, conditions: concentration: 8mM

Target	NP40-soluble protein abundance
UniProt Q9UH03 and related entries	0.986 ± 0.015
UniProt Q9UEE5	1.15 ± 0.073
PPM1H (UniProt Q9ULR3)	0.945 ± 0.024
COPG2 (UniProt Q9UBF2)	0.984 ± 0.011
TPX2 (UniProt Q9ULW0)	1.35 ± 0.029
UniProt Q9UDW1	0.766 ± 0.12
UniProt Q9Y232-2|Q9Y232	0.965 ± 0.039
UniProt Q9UPY8 and related entries	0.892 ± 0.051
UniProt Q9UDT6-2	1.19 ± 0.15
SPG7 (UniProt Q9UQ90)	1.13 ± 0.043
RAB21 (UniProt Q9UL25)	0.891 ± 0.015
RCC2 (UniProt Q9P258)	1.02 ± 0.052
UniProt Q9UQ13 and related entries	0.952 ± 0.053
CFL2 (UniProt Q9Y281)	0.835 ± 0.075
PFDN2 (UniProt Q9UHV9)	0.841 ± 0.022
SMC3 (UniProt Q9UQE7)	0.987 ± 0.032
VPS51 (UniProt Q9UID3)	0.974 ± 0.045
PA2G4 (UniProt Q9UQ80)	0.91 ± 0.021
STOML2 (UniProt Q9UJZ1)	0.949 ± 0.076

Target	NP40-soluble protein abundance
UniProt Q9UGN5-2	1.34 ± 0.027
UniProt Q9UI26 and related entries	1.03 ± 0.011
SMG5 (UniProt Q9UPR3)	0.961 ± 0.047
UniProt Q9UK61 and related entries	1.21 ± 0.034
NAGK (UniProt Q9UJ70)	0.9375 ± 0.0028
ZNF219 (UniProt Q9P2Y4)	1.04 ± 0.063
GNPTG (UniProt Q9UJJ9)	0.93 ± 0.068
UniProt Q9UI12 and related entries	0.937 ± 0.0084
CCNL1 (UniProt Q9UK58)	0.813 ± 0.068
UniProt Q9Y221 and related entries	1.44 ± 0.14
FAM8A1 (UniProt Q9UBU6)	0.978 ± 0.032
TMEM181 (UniProt Q9P2C4)	1.04 ± 0.12
COPS7A (UniProt Q9UBW8)	0.986 ± 0.015
UniProt Q9P260 and related entries	0.986 ± 0.031
XPO7 (UniProt Q9UIA9)	0.9538 ± 0.0081
MAN1B1 (UniProt Q9UKM7)	1.12 ± 0.062
ANAPC7 (UniProt Q9UJX3)	0.983 ± 0.046
UniProt Q9UBB6-2|Q9UBB6 and related entries	0.906 ± 0.06
POMP (UniProt Q9Y244)	0.878 ± 0.049

Same assay, conditions: concentration: 10mM

Target	NP40-soluble protein abundance
UniProt Q9UH03 and related entries	0.952 ± 0.039
UniProt Q9UEE5	1.18 ± 0.06
PPM1H (UniProt Q9ULR3)	0.94 ± 0.021
COPG2 (UniProt Q9UBF2)	0.991 ± 0.031
TPX2 (UniProt Q9ULW0)	1.37 ± 0.054
UniProt Q9UDW1	0.706 ± 0.1
UniProt Q9Y232-2|Q9Y232	0.967 ± 0.092
UniProt Q9UPY8 and related entries	0.915 ± 0.026
UniProt Q9UDT6-2	1.24 ± 0.14
SPG7 (UniProt Q9UQ90)	1.11 ± 0.042
RAB21 (UniProt Q9UL25)	0.942 ± 0.011
RCC2 (UniProt Q9P258)	1.03 ± 0.045
UniProt Q9UQ13 and related entries	0.924 ± 0.043
CFL2 (UniProt Q9Y281)	0.844 ± 0.081
PFDN2 (UniProt Q9UHV9)	0.829 ± 0.069
SMC3 (UniProt Q9UQE7)	0.97 ± 0.024
VPS51 (UniProt Q9UID3)	0.968 ± 0.056
PA2G4 (UniProt Q9UQ80)	0.934 ± 0.039
STOML2 (UniProt Q9UJZ1)	0.921 ± 0.055

Target	NP40-soluble protein abundance
UniProt Q9UGN5-2	1.39 ± 0.074
UniProt Q9UI26 and related entries	1.06 ± 0.055
SMG5 (UniProt Q9UPR3)	0.973 ± 0.13
UniProt Q9UK61 and related entries	1.21 ± 0.057
NAGK (UniProt Q9UJ70)	0.983 ± 0.044
ZNF219 (UniProt Q9P2Y4)	1.12 ± 0.078
GNPTG (UniProt Q9UJJ9)	0.907 ± 0.055
UniProt Q9UI12 and related entries	0.947 ± 0.038
CCNL1 (UniProt Q9UK58)	0.849 ± 0.035
UniProt Q9Y221 and related entries	1.55 ± 0.12
FAM8A1 (UniProt Q9UBU6)	0.974 ± 0.016
TMEM181 (UniProt Q9P2C4)	0.978 ± 0.053
COPS7A (UniProt Q9UBW8)	0.938 ± 0.033
UniProt Q9P260 and related entries	0.981 ± 0.038
XPO7 (UniProt Q9UIA9)	0.98 ± 0.019
MAN1B1 (UniProt Q9UKM7)	1.09 ± 0.098
ANAPC7 (UniProt Q9UJX3)	1.004 ± 0.0041
UniProt Q9UBB6-2|Q9UBB6 and related entries	0.931 ± 0.028
POMP (UniProt Q9Y244)	0.814 ± 0.093
